Assay results: patent publication US20190048090A1
No constants are given. Whether binding was seen depends on the method and setting. Binding seen in cells or lysates may run through a third protein. Some entries that bind do so weakly or less than the wild type.

By UniProt entry, the sequences of proteins in these tests, tags left out. Where a name states a change or a piece, a line headed by the entry shows the natural chain unless it says otherwise. Residues count along the entry.
UniProt P17301: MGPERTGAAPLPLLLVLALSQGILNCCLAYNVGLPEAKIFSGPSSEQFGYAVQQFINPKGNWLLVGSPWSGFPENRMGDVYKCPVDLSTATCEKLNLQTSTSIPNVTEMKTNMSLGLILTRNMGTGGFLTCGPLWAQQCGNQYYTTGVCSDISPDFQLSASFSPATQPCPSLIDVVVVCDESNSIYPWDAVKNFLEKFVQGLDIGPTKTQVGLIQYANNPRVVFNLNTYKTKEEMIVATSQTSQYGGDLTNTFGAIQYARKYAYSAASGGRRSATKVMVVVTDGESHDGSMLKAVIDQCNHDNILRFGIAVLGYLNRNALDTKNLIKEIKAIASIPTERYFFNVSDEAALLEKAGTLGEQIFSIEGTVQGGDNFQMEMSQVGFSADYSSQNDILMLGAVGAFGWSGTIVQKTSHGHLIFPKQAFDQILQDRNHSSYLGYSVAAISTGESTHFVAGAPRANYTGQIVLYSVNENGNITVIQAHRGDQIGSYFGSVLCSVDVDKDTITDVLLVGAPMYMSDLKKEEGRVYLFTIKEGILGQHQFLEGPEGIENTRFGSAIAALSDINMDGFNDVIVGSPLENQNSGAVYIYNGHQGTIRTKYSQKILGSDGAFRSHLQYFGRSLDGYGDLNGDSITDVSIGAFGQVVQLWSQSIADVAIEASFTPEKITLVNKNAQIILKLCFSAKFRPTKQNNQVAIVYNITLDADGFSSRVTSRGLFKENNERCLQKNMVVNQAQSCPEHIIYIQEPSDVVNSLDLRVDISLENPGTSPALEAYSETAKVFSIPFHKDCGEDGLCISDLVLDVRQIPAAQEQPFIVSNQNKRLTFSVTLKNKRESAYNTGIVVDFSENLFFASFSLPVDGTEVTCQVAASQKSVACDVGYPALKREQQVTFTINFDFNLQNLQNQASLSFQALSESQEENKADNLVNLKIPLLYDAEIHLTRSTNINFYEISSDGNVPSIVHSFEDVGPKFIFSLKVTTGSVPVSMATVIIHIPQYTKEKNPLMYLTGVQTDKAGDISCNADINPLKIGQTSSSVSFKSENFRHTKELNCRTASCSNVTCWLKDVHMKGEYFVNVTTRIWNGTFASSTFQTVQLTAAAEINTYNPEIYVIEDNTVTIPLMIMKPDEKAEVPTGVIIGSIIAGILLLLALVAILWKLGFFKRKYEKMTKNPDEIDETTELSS
UniProt P05556: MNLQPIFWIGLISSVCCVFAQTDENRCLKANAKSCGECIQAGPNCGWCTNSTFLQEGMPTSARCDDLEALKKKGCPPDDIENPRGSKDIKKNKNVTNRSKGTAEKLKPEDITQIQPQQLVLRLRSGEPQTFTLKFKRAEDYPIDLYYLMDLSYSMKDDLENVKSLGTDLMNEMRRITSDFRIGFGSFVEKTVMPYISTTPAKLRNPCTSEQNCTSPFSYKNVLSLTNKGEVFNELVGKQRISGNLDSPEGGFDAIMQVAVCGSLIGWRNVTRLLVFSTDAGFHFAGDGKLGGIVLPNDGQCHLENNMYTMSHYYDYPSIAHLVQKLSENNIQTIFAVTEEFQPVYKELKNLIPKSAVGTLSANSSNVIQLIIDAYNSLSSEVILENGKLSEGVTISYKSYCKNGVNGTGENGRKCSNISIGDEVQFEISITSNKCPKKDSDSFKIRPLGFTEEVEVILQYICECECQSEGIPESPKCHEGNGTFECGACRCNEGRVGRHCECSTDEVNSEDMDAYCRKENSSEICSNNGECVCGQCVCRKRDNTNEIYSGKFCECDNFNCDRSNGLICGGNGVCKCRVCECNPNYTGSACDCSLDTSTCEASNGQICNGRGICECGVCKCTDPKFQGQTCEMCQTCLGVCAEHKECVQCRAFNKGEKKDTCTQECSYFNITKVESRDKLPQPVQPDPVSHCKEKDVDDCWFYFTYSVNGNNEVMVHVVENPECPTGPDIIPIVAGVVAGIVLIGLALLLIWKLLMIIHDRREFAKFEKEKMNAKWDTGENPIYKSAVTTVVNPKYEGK
UniProt Q12864, residues 23-832: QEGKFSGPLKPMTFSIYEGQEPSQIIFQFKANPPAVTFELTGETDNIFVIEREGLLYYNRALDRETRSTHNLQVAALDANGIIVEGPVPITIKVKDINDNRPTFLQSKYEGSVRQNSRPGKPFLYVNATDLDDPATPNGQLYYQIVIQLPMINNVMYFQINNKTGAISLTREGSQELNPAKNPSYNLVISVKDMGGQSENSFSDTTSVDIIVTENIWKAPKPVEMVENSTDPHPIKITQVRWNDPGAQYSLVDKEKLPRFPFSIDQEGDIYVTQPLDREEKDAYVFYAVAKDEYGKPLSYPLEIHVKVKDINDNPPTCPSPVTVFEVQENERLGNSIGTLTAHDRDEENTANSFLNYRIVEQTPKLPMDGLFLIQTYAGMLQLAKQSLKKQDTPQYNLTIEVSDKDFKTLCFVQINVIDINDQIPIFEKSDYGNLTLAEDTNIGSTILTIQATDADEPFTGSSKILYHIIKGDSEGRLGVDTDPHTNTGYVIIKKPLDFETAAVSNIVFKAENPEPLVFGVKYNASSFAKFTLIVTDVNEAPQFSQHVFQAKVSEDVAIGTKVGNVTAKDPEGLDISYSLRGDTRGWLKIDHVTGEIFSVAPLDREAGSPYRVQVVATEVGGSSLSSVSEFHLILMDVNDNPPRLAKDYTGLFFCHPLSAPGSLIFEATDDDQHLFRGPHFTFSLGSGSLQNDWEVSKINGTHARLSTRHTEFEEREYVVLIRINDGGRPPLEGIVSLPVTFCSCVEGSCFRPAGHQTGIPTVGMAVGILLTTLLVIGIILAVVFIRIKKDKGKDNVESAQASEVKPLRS

Biological target: α2β1 integrin (human) (UniProt P17301+P05556)
Experiment: co-immunoprecipitation and western blot, transfected RKO cells

- binding: binds
Substance: CDH17 wild type (human cadherin 17) (from UniProt Q12864 23-832)
